## Screening data, single-dose tests

Protein sequences, listed by entry. Tags and fused reporters are not part of them.
UniProt P9WPC5, whole entry: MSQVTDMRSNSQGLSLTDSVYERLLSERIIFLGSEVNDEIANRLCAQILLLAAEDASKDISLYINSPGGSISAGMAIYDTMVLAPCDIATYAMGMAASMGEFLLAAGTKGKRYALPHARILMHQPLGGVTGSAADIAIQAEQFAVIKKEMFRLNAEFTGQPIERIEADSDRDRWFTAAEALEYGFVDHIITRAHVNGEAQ
UniProt P9WPC3, whole entry partner: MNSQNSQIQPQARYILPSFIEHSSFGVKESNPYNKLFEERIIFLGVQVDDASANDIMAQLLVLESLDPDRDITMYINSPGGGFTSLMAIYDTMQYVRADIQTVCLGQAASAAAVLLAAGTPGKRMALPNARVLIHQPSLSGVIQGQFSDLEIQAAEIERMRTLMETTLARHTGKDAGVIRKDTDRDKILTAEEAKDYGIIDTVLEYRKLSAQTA

The values are deposited in ChEMBL (CHEMBL3988442, “University of Dundee, Small-Polar-MMV Screening Library” (2021)).

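ClpP1P2, Mycobacterium tuberculosis (UniProt P9WPC5 and UniProt P9WPC3). Protease assay of ClpP1P2, read by the AMC dye that it sets free. Compounds at 50 µM. Direction is inferred from only a few compounds that gave an IC50; most scored high, so higher reads as stronger inhibition. Most other retested compounds had strongly negative values. Of about 69,000 compounds tested this way, about 10 (0.015%) reached 50% or more in at least one test.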

Values are the deposited “Percent Effect”, in %. How 0% and 100% were set is not recorded. Most values in the screen are low, and negative values occur. The compounds are a random part of those screened.

Result for CC(=O)Nc1ccc(CNc2cccc(CS(C)(=O)=O)c2)cc1 was -5.912%. Result for O=C(NCCn1ccc(-c2ccccn2)n1)C1CC1 was -25.6%. Result for Cn1cnnc1C1CCCN(C(=O)NCCc2ccccn2)C1 (centres undefined) was -13.57%. Cc1noc(C)c1-c1cncc(C2CCCN2Cc2cc[nH]n2)n1 (centres undefined) gave -8.804%. CS(=O)(=O)Cc1ccc(C(=O)NC2CCc3nccn3C2)o1 (centres undefined) read -12.69%. With CC(C)Sc1ncccc1C(=O)NCc1ccc(CS(C)(=O)=O)cc1 the screen gave 10.23%. Result for FC(F)Oc1ccc(CNCc2cc(Br)c3c(c2)OCO3)cc1 was -0.9606%.

Cn1cc(Cl)c(C(=O)N2CCC(N3CCc4ccccc4C3)CC2)n1 gave 5.753%. CN(CCCOc1ccccc1Cl)C(=O)CN1CCNC1=O read -7.753%. With CCc1nnc2n1CCN(C(=O)c1cc3ccc(C)cc3[nH]1)C2 the screen gave -9.833%. For c1cnc(CC2COCCN(C3CCCCC3)C2)cn1 (centres undefined) the result was -27.76%. With CCC(C)NC(=O)CS(=O)(=O)Cc1nc(-c2cccs2)no1 (centres undefined) the screen gave 5.815%. For Cc1cc(C)cc(C(=O)Nc2ccc(CC3CC(=O)NC3=O)cc2)c1 (centres undefined) the result was 1.282%. With COc1cc(CNCCc2cnn(C)c2)cc2c1OCO2 the screen gave -16.68%.

With CN(Cc1ccc(CCC(C)(C)O)cc1)CC1(CO)CC1 the screen gave 3.377%. For CS(=O)(=O)NCC1CCCN(C(=O)c2cccc(F)c2)C1 (centres undefined) the result was -28.31%. For Cc1ccc(CNC(CN2CCN(C)CC2)c2ccccc2)cc1 (centres undefined) the result was 3.603%. Result for COc1cc(C)ccc1S(=O)(=O)N[C@H]1CN(C(C)=O)C[C@@H]1C1CC1 was -19.78%. Result for CNc1ncc(CN(C)C(=O)c2cccc(-n3cccn3)c2)cn1 was -18.46%. Cc1ccc(O)c(CNC2CCCN(Cc3noc(C4CC4)n3)C2)n1 (centres undefined) gave -19.45%. With CCc1cc(NCCCOC2CCN(C)CC2)ncn1 the screen gave -2.802%.

COCCOc1ccc(NC(=O)N2CCOC(C(N)=O)C2)cc1F (centres undefined) read 3.034%. CC(C)(C)C(=O)N1C[C@@H]2COC[C@]2(c2nnc(C3CC3)o2)C1 gave -9.021%. Cc1ccccc1-n1ncc(C(C)N)c1C (centres undefined) read -0.7519%. Result for Cc1ncsc1C(=O)NCCn1nc(C2CCNC2)c2cccnc21 (centres undefined) was 7.141%. With COc1cccc(COCC(=O)N2CCCC(n3ccnc3C)C2)c1 (centres undefined) the screen gave 1.25%. For CC(=O)N1CCC(C(=O)N2CCCC(Cc3cccc(C)n3)C2)CC1 (centres undefined) the result was 14.52%. CC(C)(O)CCc1cccc(C(=O)N2CCC[C@H]2CN2CCCC2)c1 read 21.35%.

Result for COC1CCN(C(=O)C2CC(=O)N(c3ccccc3Br)C2)CC1 (centres undefined) was -3.315%. Result for c1ccc(-c2noc(C3CCN(CCCn4cncn4)CC3)n2)cc1 was 12.27%. Result for O=c1[nH]c2c(c(=O)n1C1CCCCC1)CCC2NCc1ccccc1 (centres undefined) was -10.02%. Cc1ccc2cc(C(=O)N3CCN(C(=O)N(C)C)CC3)ccc2n1 gave -7.781%. For O=C(c1ccc(Cl)cc1-n1cnnn1)N1CCC2(CC1)OCCO2 the result was -16.11%. With COc1ccc([C@@H]2CN(Cc3cccnc3N)C[C@H]2N(C)C)cc1 the screen gave -11.84%. For Cc1ccn(CCNc2ncnc3c2CCN(c2cnccn2)CC3)n1 the result was -5.604%.

COc1ccc(CNC(C)Cn2cccn2)c(OC)c1OC (centres undefined) read -4.962%. O=C(Cn1cccc(S(=O)(=O)N2CCCC2)c1=O)c1ccccc1Cl gave -2.873%. Result for CCN(C(=O)c1nc2c(s1)CCCN2C(C)=O)C(C)C was -8.648%. CN1CCC/C1=N\S(=O)(=O)c1ccc(NC(=O)c2ccsc2)cc1 read -15.44%. For Cc1cccc2c1ccn2CCC(=O)Nc1c2c(nn1C)CSC2 the result was 10.59%. With Cc1cccc(NC(C)C(=O)Nc2nccs2)c1 (centres undefined) the screen gave 3.815%. With O=C(NCC1CCCO1)c1cc(-c2ccncc2)c2cnccc2n1 (centres undefined) the screen gave -9.639%.

Cc1cc(NC(=O)NCC2CCN(C(C)C)C2)no1 (centres undefined) gave -30.37%. CCn1ncc2c1CCCC2NCc1cccc2c1OCO2 (centres undefined) gave 20.08%. Result for CCc1ccccc1C(=O)N1CCN(S(C)(=O)=O)[C@@H](C)C1 was -5.79%. For CCN(C(=O)c1ccc2nnc(C3CCN(C(C)=O)C3)n2c1)C(C)C (centres undefined) the result was -0.553%. With Cc1nn(C)c(C)c1CN(Cc1cccn1-c1ncccn1)C(C)C the screen gave 3.053%. With CC(C)N1CC(C(=O)NCCc2csc(-c3ccncc3)n2)CC1=O (centres undefined) the screen gave 11.44%. COc1ccc(C)cc1-n1cnnc1C1CCCN(C)C1 (centres undefined) gave 0.1225%.

CC(C)NC(=O)Nc1ccc(CS(=O)(=O)C(C)(C)C)cc1 gave 0.7124%. CCN(Cc1ccc2c(c1)OCCO2)C(=O)NC(C)Cn1ccnc1 (centres undefined) read 0.09282%. For O=C([C@H]1C[C@H]2OCC[C@H]2N(C(=O)c2ccnnc2)C1)N1CCCCO1 the result was 7.453%. With N#Cc1ccccc1N1CCCN(C(=O)CCc2ccsc2)CC1 the screen gave -58.01%. With CC(C)c1nc(C(=O)N2C[C@H]3CC[C@@H]2CN(C2CCOCC2)C3)cs1 the screen gave 4.397%. With CC(C)CNc1cc(-c2c[nH]nc2C2CCN(C(=O)C3CC3)C2)ccn1 (centres undefined) the screen gave -16.34%. Cc1nc(-c2cccc(N3CCC(NC4CCSC4)CC3)c2)cs1 (centres undefined) gave -10.19%.

For CCn1ncnc1C1CC(=O)NCc2nc3ccccn3c21 (centres undefined) the result was -9.163%. Result for Cc1cnc(C)c(N2CCN(Cc3ccc(-c4cc[nH]n4)o3)CC2)n1 was -10.29%. For CCN(CC)Cc1nc2c(o1)CN(C(=O)c1ccc3[nH]ccc3c1)C2 the result was 10.96%.